In patent US12729225B2, “Non-canonical SWI/SNF complex and uses thereof” (Dana-Farber Cancer Institute, Inc., priority 2018, dated 2026):

System: mSWI/SNF complexes
Assay: mSWI/SNF complex purification with HA-tagged baits and mass spectrometry (peptide counts)
Set-up: species or system human
[1] = 293_HA-BRD7: HA-BRD7 bait purification, total peptide count per co-purified protein
[2] = 293_HA-BRD7: HA-BRD7 bait purification, unique peptide count per co-purified protein

Molecule	Total [1]	Unique [2]	Total (293_HA-BRD7 bait purification, mass spectrometry, total peptides per co-purified protein)	Unique (293_HA-BRD7 bait purification, mass spectrometry, unique peptides per co-purified protein)
DNAJC9 (protein, UniProt Q8WXX5 1-260, looked up) DnaJ homolog subfamily C …: MGLLDLCEEVFGTADLYRVLGVRREASDGEVRRGYHKVSLQVHPDRVGEGDKEDATRRFQILGKVYSVLSDREQRAVYDEQGTVDEDSPVLTQDRDWEAYWRLLFKKISLEDIQAFEKTYKGSEEELADIKQAYLDFKGDMDQIMESVLCVQYTEEPRIRNIIQQAIDAGEVPSYNAFVKESKQKMNARKRRAQEEAKEAEMSRKELGLDEGVDSLKAAIQSRQKDRQKEMDNFLAQMEAKYCKSSKGGGKKSALKKEKK	4	4		
SF3A1 (protein, UniProt Q15459 2-793, looked up) Splicing factor 3A subunit 1: PAGPVQAVPPPPPVPTEPKQPTEEEASSKEDSAPSKPVVGIIYPPPEVRNIVDKTASFVARNGPEFEARIRQNEINNPKFNFLNPNDPYHAYYRHKVSEFKEGKAQEPSAAIPKVMQQQQQTTQQQLPQKVQAQVIQETIVPKEPPPEFEFIADPPSISAFDLDVVKLTAQFVARNGRQFLTQLMQKEQRNYQFDFLRPQHSLFNYFTKLVEQYTKILIPPKGLFSKLKKEAENPREVLDQVCYRVEWAKFQERERKKEEEEKEKERVAYAQIDWHDFVVVETVDFQPNEQGNFPPPTTPEELGARILIQERYEKFGESEEVEMEVESDEEDDKQEKAEEPPSQLDQDTQVQDMDEGSDDEEEGQKVPPPPETPMPPPLPPTPDQVIVRKDYDPKASKPLPPAPAPDEYLVSPITGEKIPASKMQEHMRIGLLDPRWLEQRDRSIREKQSDDEVYAPGLDIESSLKQLAERRTDIFGVEETAIGKKIGEEEIQKPEEKVTWDGHSGSMARTQQAAQANITLQEQIEAIHKAKGLVPEDDTKEKIGPSKPNEIPQQPPPPSSATNIPSSAPPITSVPRPPTMPPPVRTTVVSAVPVMPRPPMASVVRLPPGSVIAPMPPIIHAPRINVVPMPPSAPPIMAPRPPPMIVPTAFVPAPPVAPVPAPAPMPPVHPPPPMEDEPTSKKLKTEDSLMPEEEFLRRNKGPVSIKVQVPNMQDKTEWKLNGQVLVFTLPLTDQVSVIKVKIHEATGMPAGKQKLQYEGIFIKDSNSLAYYNMANGAVIHLALKERGGRKK	4	4		
DIMT1 (protein, UniProt Q9UNQ2 1-313, looked up) Dimethyladenosine transferase: MPKVKSGAIGRRRGRQEQRRELKSAGGLMFNTGIGQHILKNPLIINSIIDKAALRPTDVVLEVGPGTGNMTVKLLEKAKKVVACELDPRLVAELHKRVQGTPVASKLQVLVGDVLKTDLPFFDTCVANLPYQISSPFVFKLLLHRPFFRCAILMFQREFALRLVAKPGDKLYCRLSINTQLLARVDHLMKVGKNNFRPPPKVESSVVRIEPKNPPPPINFQEWDGLVRITFVRKNKTLSAAFKSSAVQQLLEKNYRIHCSVHNIIIPEDFSIADKIQQILTSTGFSDKRARSMDIDDFIRLLHGFNAEGIHFS	4	4		
HNRNPC (protein, UniProt P07910 2-306, looked up) Heterogeneous nuclear …: ASNVTNKTDPRSMNSRVFIGNLNTLVVKKSDVEAIFSKYGKIVGCSVHKGFAFVQYVNERNARAAVAGEDGRMIAGQVLDINLAAEPKVNRGKAGVKRSAAEMYGSVTEHPSPSPLLSSSFDLDYDFQRDYYDRMYSYPARVPPPPPIARAVVPSKRQRVSGNTSRRGKSGFNSKSGQRGSSKSGKLKGDDLQAIKKELTQIKQKVDSLLENLEKIEKEQSKQAVEMKNDKSEEEQSSSSVKKDETNVKMESEGGADDSAEEGDLLDDDDNEDRGDDQLELIKDDEKEAEEGEDDRDSANGEDDS	4	4	1	1
GOT2 (protein, UniProt P00505 30-430, looked up) Aspartate aminotransferase, …: SSWWTHVEMGPPDPILGVTEAFKRDTNSKKMNLGVGAYRDDNGKPYVLPSVRKAEAQIAAKNLDKEYLPIGGLAEFCKASAELALGENSEVLKSGRFVTVQTISGTGALRIGASFLQRFFKFSRDVFLPKPTWGNHTPIFRDAGMQLQGYRYYDPKTCGFDFTGAVEDISKIPEQSVLLLHACAHNPTGVDPRPEQWKEIATVVKKRNLFAFFDMAYQGFASGDGDKDAWAVRHFIEQGINVCLCQSYAKNMGLYGERVGAFTMVCKDADEAKRVESQLKILIRPMYSNPPLNGARIAAAILNTPDLRKQWLQEVKVMADRIIGMRTQLVSNLKKEGSTHNWQHITDQIGMFCFTGLKPEQVERLIKEFSIYMTKDGRISVAGVTSSNVGYLAHAIHQVTK	4	4		
SF3B3 (protein) MFLYNLTLQRATGISFAIHGNFSGTKQQEIVVSRGKILELLRPDPNTGKVHTLLTVEVFGVIRSLMAFRLTGGTKDYIVVGSDSGRIVILEYQPSKNMFEKIHQETFGKSGCRRIVPGQFLAVDPKGRAVMISAIEKQKLVYILNRDAAARLTISSPLEAHKANTLVYHVVGVDVGFENPMFACLEMDYEEADNDPTGEAAANTQQTLTFYELDLGLNHVVRKYSEPLEEHGNFLITVPGGSDGPSGVLICSENYITYKNFGDQPDIRCPIPRRRNDLDDPERGMIFVCSATHKTKSMFFFLAQTEQGDIFKITLETDEDMVTEIRLKYFDTVPVAAAMCVLKTGFLFVASEFGNHYLYQIAHLGDDDEEPEFSSAMPLEEGDTFFFQPRPLKNLVLVDELDSLSPILFCQIADLANEDTPQLYVACGRGPRSSLRVLRHGLEVSEMAVSELPGNPNAVWTVRRHIEDEFDAYIIVSFVNATLVLSIGETVEEVTDSGFLGTTPTLSCSLLGDDALVQVYPDGIRHIRADKRVNEWKTPGKKTIVKCAVNQRQVVIALTGGELVYFEMDPSGQLNEYTERKEMSADVVCMSLANVPPGEQRSRFLAVGLVDNTVRIISLDPSDCLQPLSMQALPAQPESLCIVEMGGTEKQDELGERGSIGFLYLNIGLQNGVLLRTVLDPVTGDLSDTRTRYLGSRPVKLFRVRMQGQEAVLAMSSRSWLSYSYQSRFHLTPLSYETLEFASGFASEQCPEGIVAISTNTLRILALEKLGAVFNQVAFPLQYTPRKFVIHPESNNLIIIETDHNAYTEATKAQRKQQMAEEMVEAAGEDERELAAEMAAAFLNENLPESIFGAPKAGNGQWASVIRVMNPIQGNTLDLVQLEQNEAAFSVAVCRFSNTGEDWYVLVGVAKDLILNPRSVAGGFVYTYKLVNNGEKLEFLHKTPVEEVPAAIAPFQGRVLIGVGKLLRVYDLGKKKLLRKCENKHIANYISGIQTIGHRVIVSDVQESFIWVRYKRNENQLIIFADDTYPRWVTTASLLDYDTVAGADKFGNICVVRLPPNTNDEVDEDPTGNKALWDRGLLNGASQKAEVIMNYHVGETVLSLQKTTLIPGGSESLVYTTLSGGIGILVPFTSHEDHDFFQHVEMHLRSEHPPLCGRDHLSFRSYYFPVKNVIDGDLCEQFNSMEPNKQKNVSEELDRTPPEVSKKLEDIRTRYAF	4	4		
CAND1 (protein, UniProt Q86VP6 2-1230, looked up) Cullin-associated …: ASASYHISNLLEKMTSSDKDFRFMATNDLMTELQKDSIKLDDDSERKVVKMILKLLEDKNGEVQNLAVKCLGPLVSKVKEYQVETIVDTLCTNMLSDKEQLRDISSIGLKTVIGELPPASSGSALAANVCKKITGRLTSAIAKQEDVSVQLEALDIMADMLSRQGGLLVNFHPSILTCLLPQLTSPRLAVRKRTIIALGHLVMSCGNIVFVDLIEHLLSELSKNDSMSTTRTYIQCIAAISRQAGHRIGEYLEKIIPLVVKFCNVDDDELREYCIQAFESFVRRCPKEVYPHVSTIINICLKYLTYDPNYNYDDEDEDENAMDADGGDDDDQGSDDEYSDDDDMSWKVRRAAAKCLDAVVSTRHEMLPEFYKTVSPALISRFKEREENVKADVFHAYLSLLKQTRPVQSWLCDPDAMEQGETPLTMLQSQVPNIVKALHKQMKEKSVKTRQCCFNMLTELVNVLPGALTQHIPVLVPGIIFSLNDKSSSSNLKIDALSCLYVILCNHSPQVFHPHVQALVPPVVACVGDPFYKITSEALLVTQQLVKVIRPLDQPSSFDATPYIKDLFTCTIKRLKAADIDQEVKERAISCMGQIICNLGDNLGSDLPNTLQIFLERLKNEITRLTTVKALTLIAGSPLKIDLRPVLGEGVPILASFLRKNQRALKLGTLSALDILIKNYSDSLTAAMIDAVLDELPPLISESDMHVSQMAISFLTTLAKVYPSSLSKISGSILNELIGLVRSPLLQGGALSAMLDFFQALVVTGTNNLGYMDLLRMLTGPVYSQSTALTHKQSYYSIAKCVAALTRACPKEGPAVVGQFIQDVKNSRSTDSIRLLALLSLGEVGHHIDLSGQLELKSVILEAFSSPSEEVKSAASYALGSISVGNLPEYLPFVLQEITSQPKRQYLLLHSLKEIISSASVVGLKPYVENIWALLLKHCECAEEGTRNVVAECLGKLTLIDPETLLPRLKGYLISGSSYARSSVVTAVKFTISDHPQPIDPLLKNCIGDFLKTLEDPDLNVRRVALVTFNSAAHNKPSLIRDLLDTVLPHLYNETKVRKELIREVEMGPFKHTVDDGLDIRKAAFECMYTLLDSCLDRLDIFEFLNHVEDGLKDHYDIKMLTFLMLVRLSTLCPSAVLQRLDRLVEPLRATCTTKVKANSVKQEFEKQDELKRSAMRAVAALLTIPEAEKSPLMSEFQSQISSNPELAAIFESIQKDSSSTNLESMDTS	4	4		
SCAF4 (protein, UniProt O95104 1-1147, looked up) SR-related and CTD-associated …: MDAVNAFNQELFSLMDMKPPISRAKMILITKAAIKAIKLYKHVVQIVEKFIKKCKPEYKVPGLYVIDSIVRQSRHQFGTDKDVFGPRFSKNITATFQYLYLCPSEDKSKIVRVLNLWQKNGVFKIEIIQPLLDMAAGTSNAAPVAENVTNNEGSPPPPVKVSSEPPTQATPNSVPAVPQLPSSDAFAAVAQLFQTTQGQQLQQILQTFQQPPKPQSPALDNAVMAQVQAITAQLKTTPTQPSEQKAAFPPPEQKTAFDKKLLDRFDYDDEPEAVEESKKEDTTAVTTTAPAAAVPPAPTATVPAAAAPAAASPPPPQAPFGFPGDGMQQPAYTQHQNMDQFQPRMMGIQQDPMHHQVPLPPNGQMPGFGLLPTPPFPPMAQPVIPPTPPVQQPFQASFQAQNEPLTQKPHQQEMEVEQPCIQEVKRHMSDNRKSRSRSASRSPKRRRSRSGSRSRRSRHRRSRSRSRDRRRHSPRSRSQERRDREKERERRQKGLPQVKPETASVCSTTLWVGQLDKRTTQQDVASLLEEFGPIESINMIPPRGCAYIVMVHRQDAYRALQKLSRGNYKVNQKSIKIAWALNKGIKADYKQYWDVELGVTYIPWDKVKPEELESFCEGGMLDSDTLNPDWKGIPKKPENEVAQNGGAETSHTEPVSPIPKPLPVPVPPIPVPAPITVPPPQVPPHQPGPPVVGALQPPAFTPPLGIPPPGFGPGVPPPPPPPPFLRPGFNPMHLPPGFLPPGPPPPITPPVSIPPPHTPPISIPNSTIAGINEDTTKDLSIGNPIPTVVSGARGNAESGDSVKMYGSAVPPAAPTNLPTPPVTQPVSLLGTQGVAPGPVIGLQAPSTGLLGARPGLIPLQRPPGMPPPHLQRFPLMPPRPMPPHMMHRGPPPGPGGFAMPPPHGMKGPFPPHGPFVRPGGMPGLGGPGPGPGGPEDRDGRQQPPQQPQQQPQPQAPQQPQQQQQQQPPPSQQPPPTQQQPQQFRNDNRQQFNSGRDQERFGRRSFGNRVENDRERYGNRNDDRDNSNRDRREWGRRSPDRDRHRDLEERNRRSSGHRDRERDSRDRESRREKEEARGKEKPEVTDRAGGNKTVEPPISQVGNVDTASELEKGVSEAAVLKPSEELPAEATSSVEPEKDSGSAAEAPR	4	4		
